Laboratory results published in article PMC4682977.
These are yes or no findings as the source states them, for the method shown. For some assays here: Binding seen in cells or lysates may run through a third protein. Some entries that bind do so weakly or less than the wild type. For some assays here: Sequences can lack the tags named with a protein. One block for each molecule: values may come before it.

Sequences of proteins named here, by UniProt entry; tags and fusion partners are left off.
UniProt P63010: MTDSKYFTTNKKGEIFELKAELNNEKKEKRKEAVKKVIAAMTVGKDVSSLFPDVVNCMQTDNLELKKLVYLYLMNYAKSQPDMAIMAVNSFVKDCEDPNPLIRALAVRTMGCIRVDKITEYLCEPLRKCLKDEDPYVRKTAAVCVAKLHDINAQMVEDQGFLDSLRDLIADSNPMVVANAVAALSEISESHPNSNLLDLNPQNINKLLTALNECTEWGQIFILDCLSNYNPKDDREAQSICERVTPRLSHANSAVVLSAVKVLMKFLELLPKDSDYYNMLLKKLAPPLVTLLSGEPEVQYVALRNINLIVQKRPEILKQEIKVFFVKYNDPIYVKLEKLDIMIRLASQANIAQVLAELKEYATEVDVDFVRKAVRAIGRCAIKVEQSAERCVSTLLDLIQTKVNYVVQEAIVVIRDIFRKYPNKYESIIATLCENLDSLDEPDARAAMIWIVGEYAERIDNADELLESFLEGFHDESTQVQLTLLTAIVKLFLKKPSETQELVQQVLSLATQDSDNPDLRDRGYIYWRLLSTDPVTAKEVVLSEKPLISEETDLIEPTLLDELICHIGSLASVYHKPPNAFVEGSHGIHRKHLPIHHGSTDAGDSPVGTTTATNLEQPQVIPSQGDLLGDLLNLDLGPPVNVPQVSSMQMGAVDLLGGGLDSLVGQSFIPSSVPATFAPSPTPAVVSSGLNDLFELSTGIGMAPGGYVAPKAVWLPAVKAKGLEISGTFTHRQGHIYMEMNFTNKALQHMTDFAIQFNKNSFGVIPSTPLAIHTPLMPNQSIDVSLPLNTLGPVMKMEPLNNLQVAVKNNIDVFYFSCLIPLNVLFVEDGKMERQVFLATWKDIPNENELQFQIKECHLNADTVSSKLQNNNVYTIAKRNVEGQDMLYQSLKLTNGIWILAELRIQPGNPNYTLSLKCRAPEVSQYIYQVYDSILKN

Columns and labels:
[1] = molecular target: T1, C-terminally Flag-tagged TβRI (TGF-β type I receptor) (UniProt P36897); test: co-IP; 293T cells coexpressing TβRII and Flag-tagged TβRI with the partner, with or without increasing amounts of p52ShcA-HA or Smad3-myc plasmid, TGF-β-treated; anti-Flag immunoprecipitation of TβRI, immunoblotting of associated proteins; lysis buffer 25 mM Tris-HCl pH 7.5, 150 mM NaCl, 0.7% Triton X-100, 10% glycerol
T1 sequence: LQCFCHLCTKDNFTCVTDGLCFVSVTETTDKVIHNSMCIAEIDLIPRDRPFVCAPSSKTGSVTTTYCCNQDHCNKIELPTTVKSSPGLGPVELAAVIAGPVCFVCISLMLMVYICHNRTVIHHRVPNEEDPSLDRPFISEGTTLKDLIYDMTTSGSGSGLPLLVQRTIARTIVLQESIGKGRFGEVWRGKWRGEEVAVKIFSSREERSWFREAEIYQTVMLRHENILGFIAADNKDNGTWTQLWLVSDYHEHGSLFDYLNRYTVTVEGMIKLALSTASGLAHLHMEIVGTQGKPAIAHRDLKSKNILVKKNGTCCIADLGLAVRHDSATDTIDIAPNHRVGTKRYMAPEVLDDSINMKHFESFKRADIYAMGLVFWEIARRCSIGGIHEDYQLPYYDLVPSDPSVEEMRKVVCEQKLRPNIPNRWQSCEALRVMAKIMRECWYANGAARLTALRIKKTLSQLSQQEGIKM

[2] = molecular target: T2, endogenous TβRI of NMuMG cells (mouse (endogenous in NMuMG)) (UniProt Q64729); test: co-IP; NMuMG cells, proteins at endogenous levels, treated or not with TGF-β, transfected with ShcA siRNA or p52ShcA expression plasmid; endogenous TβRI immunoprecipitated with anti-TβRI, associated β2-adaptin or caveolin 1 immunoblotted
T2 sequence: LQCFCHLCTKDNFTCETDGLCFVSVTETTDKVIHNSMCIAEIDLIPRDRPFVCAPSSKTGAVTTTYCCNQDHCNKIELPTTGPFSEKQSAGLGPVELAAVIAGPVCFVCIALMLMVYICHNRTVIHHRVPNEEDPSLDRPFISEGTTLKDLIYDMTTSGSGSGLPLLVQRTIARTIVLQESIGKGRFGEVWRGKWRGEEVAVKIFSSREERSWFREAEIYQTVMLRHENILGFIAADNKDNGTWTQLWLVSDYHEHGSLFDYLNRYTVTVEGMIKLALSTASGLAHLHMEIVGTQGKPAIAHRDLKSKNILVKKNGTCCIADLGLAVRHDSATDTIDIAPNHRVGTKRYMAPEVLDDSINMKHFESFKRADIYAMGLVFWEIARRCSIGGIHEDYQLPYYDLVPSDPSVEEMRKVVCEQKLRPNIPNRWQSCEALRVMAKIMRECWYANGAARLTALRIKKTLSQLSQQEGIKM

[3] = molecular target: T1, C-terminally Flag-tagged TβRI (TGF-β type I receptor); test: co-IP; 293T cells coexpressing TβRII and Flag-tagged TβRI with the partner, with or without increasing amounts of p52ShcA-HA or Smad3-myc plasmid, TGF-β-treated; anti-Flag immunoprecipitation of TβRI, immunoblotting of associated proteins; lysis buffer 25 mM Tris-HCl pH 7.5, 150 mM NaCl, 0.7% Triton X-100, 10% glycerol; remark: listed apart in the source
[4] = molecular target: T1, C-terminally Flag-tagged TβRI (TGF-β type I receptor); test: pull-down; GST-Smad3 immobilised on glutathione-Sepharose, incubated 20 min at 4°C with immunopurified Flag-TβRI from TGF-β-treated 293T cells; after three washes the beads were incubated with His-tagged ShcA for 30 min at 4°C; bound and unbound proteins immunoblotted; one sample with TβRI dephosphorylated by lambda phosphatase; both purified

binding [1]: binds
Molecule: GFP-tagged β2-adaptin (from UniProt P63010 1-937)

binding [1]: binds
Molecule: GFP-tagged caveolin-1 (from UniProt Q03135 1-178)

binding [2]: binds
B1: endogenous caveolin 1 of NMuMG cells (protein, UniProt P49817 1-178)
chain: MSGGKYVDSEGHLYTVPIREQGNIYKPNNKAMADEVTEKQVYDAHTKEIDLVNRDPKHLNDDVVKIDFEDVIAEPEGTHSFDGIWKASFTTFTVTKYWFYRLLSTIFGIPMALIWGIYFAILSFLHIWAVVPCIKSFLIEIQCISRVYSIYVHTFCDPLFEAIGKIFSNIRISTQKEI

B2: C-terminally haemagglutinin (HA)-tagged p52ShcA (protein, UniProt P29353-2 1-473)
chain: MNKLSGGGGRRTRVEGGQLGGEEWTRHGSFVNKPTRGWLHPNDKVMGPGVSYLVRYMGCVEVLQSMRALDFNTRTQVTREAISLVCEAVPGAKGATRRRKPCSRPLSSILGRSNLKFAGMPITLTVSTSSLNLMAADCKQIIANHHMQSISFASGGDPDTAEYVAYVAKDPVNQRACHILECPEGLAQDVISTIGQAFELRFKQYLRNPPKLVTPHDRMAGFDGSAWDEEEEEPPDHQYYNDFPGKEPPLGGVVDMRLREGAAPGAARPTAPNAQTPSHLGATLPVGQPVGGDPEVRKQMPPPPPCPGRELFDDPSYVNVQNLDKARQAVGGAGPPNPAINGSAPRDLFDMKPFEDALRVPPPPQSVSMAEQLRGEPWFHGKLSRREAEALLQLNGDFLVRESTTTPGQYVLTGLQSGQPKHLLLVDPEGVVRTKDHRFESVSHLISYHMDNHLPIISAGSELCLQQPVERKL
binding [3]: binds

binding [4]: binds
B3: His-tagged p52ShcA (protein, UniProt P29353-2 1-473)
chain: MNKLSGGGGRRTRVEGGQLGGEEWTRHGSFVNKPTRGWLHPNDKVMGPGVSYLVRYMGCVEVLQSMRALDFNTRTQVTREAISLVCEAVPGAKGATRRRKPCSRPLSSILGRSNLKFAGMPITLTVSTSSLNLMAADCKQIIANHHMQSISFASGGDPDTAEYVAYVAKDPVNQRACHILECPEGLAQDVISTIGQAFELRFKQYLRNPPKLVTPHDRMAGFDGSAWDEEEEEPPDHQYYNDFPGKEPPLGGVVDMRLREGAAPGAARPTAPNAQTPSHLGATLPVGQPVGGDPEVRKQMPPPPPCPGRELFDDPSYVNVQNLDKARQAVGGAGPPNPAINGSAPRDLFDMKPFEDALRVPPPPQSVSMAEQLRGEPWFHGKLSRREAEALLQLNGDFLVRESTTTPGQYVLTGLQSGQPKHLLLVDPEGVVRTKDHRFESVSHLISYHMDNHLPIISAGSELCLQQPVERKL
